Read-outs that look alike come from different tables or passages of the source. Results are given in words; binding and its absence hold for the method and conditions named. Binding seen in cells or lysates may run through a third protein. A yes stands for co-enrichment or nearness to the bait. Other partners may have been found. Blank lines part the entries; values can stand above or below the molecule they belong to.
Columns and labels:
GFP–MYO10–BioID (human) = GFP–MYO10–BioID (human) (UniProt Q9HD67); assay: proximity labelling; U2-OS cells stably expressing GFP–MYO10–BioID or GFP–MYO10, on fibronectin, 50 μM biotin for 24 h; biotinylated proteins purified on streptavidin beads; mass spectrometry and western blotting
[1] = target: GFP–MYO10^FERM (MyTH4/FERM domain of myosin-X) (UniProt Q9HD67); assay: affinity purification with mass spectrometry; GFP pulldowns in U2-OS cells stably expressing GFP, GFP–MYO10^FERM or GFP–TLN1^FERM; two biological replicates combined; hits enriched at least twofold over GFP and over TLN1^FERM
[2] = target: GFP–MYO10^FERM (MyTH4/FERM domain of myosin-X) (UniProt Q9HD67); assay: as above; remark: listed apart in the source

Protein sequences, listed by entry. Tags and fused reporters are not part of them.
UniProt Q9HD67: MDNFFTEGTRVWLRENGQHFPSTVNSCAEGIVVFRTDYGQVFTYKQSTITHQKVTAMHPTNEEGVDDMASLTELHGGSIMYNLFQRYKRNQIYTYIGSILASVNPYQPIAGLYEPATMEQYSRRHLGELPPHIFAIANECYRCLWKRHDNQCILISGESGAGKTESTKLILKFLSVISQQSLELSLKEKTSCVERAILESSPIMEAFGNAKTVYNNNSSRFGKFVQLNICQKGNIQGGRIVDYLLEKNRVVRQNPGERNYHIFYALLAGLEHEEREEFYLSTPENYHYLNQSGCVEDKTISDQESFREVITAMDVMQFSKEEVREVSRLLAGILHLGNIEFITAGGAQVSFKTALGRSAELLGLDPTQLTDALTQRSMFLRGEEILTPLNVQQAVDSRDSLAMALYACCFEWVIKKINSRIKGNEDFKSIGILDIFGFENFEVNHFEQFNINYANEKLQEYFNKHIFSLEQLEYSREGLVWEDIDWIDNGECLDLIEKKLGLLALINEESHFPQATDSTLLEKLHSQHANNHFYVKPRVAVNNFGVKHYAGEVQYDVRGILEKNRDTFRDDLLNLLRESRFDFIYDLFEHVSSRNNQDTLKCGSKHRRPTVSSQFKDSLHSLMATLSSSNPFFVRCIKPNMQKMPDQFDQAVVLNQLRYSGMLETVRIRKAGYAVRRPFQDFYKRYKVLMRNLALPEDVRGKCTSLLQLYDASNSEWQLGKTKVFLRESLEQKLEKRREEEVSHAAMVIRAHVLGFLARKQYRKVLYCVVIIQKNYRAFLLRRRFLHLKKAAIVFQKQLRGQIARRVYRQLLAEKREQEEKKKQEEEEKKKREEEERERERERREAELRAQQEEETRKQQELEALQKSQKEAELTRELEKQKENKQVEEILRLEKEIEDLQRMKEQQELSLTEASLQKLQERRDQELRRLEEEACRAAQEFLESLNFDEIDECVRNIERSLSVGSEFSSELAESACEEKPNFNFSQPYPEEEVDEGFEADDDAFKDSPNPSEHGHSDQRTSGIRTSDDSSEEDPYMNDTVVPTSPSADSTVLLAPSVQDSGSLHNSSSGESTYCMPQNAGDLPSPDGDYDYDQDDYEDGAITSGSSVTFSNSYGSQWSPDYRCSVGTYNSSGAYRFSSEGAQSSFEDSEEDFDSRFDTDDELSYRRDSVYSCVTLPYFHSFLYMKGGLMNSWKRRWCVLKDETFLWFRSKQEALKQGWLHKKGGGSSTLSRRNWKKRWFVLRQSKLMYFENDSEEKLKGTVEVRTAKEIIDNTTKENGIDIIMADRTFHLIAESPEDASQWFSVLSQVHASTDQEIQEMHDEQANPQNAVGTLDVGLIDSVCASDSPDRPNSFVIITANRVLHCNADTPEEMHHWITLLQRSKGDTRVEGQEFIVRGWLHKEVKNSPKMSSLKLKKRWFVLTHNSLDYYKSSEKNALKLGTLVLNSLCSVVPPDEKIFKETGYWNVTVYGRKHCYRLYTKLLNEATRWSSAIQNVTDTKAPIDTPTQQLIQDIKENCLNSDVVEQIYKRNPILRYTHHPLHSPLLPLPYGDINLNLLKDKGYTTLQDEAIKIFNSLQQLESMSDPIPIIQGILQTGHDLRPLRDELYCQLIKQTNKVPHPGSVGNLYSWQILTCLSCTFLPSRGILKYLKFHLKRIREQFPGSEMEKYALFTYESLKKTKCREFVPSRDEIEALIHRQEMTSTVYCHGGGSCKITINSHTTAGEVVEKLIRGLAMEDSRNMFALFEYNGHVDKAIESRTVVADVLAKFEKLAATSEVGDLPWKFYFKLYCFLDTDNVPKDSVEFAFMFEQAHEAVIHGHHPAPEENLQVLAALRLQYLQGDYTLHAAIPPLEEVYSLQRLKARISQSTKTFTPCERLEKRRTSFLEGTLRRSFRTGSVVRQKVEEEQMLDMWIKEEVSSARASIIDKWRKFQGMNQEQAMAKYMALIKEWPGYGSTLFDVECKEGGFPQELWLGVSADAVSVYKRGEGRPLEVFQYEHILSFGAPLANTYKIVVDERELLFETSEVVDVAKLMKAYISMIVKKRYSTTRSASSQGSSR
UniProt Q70E73: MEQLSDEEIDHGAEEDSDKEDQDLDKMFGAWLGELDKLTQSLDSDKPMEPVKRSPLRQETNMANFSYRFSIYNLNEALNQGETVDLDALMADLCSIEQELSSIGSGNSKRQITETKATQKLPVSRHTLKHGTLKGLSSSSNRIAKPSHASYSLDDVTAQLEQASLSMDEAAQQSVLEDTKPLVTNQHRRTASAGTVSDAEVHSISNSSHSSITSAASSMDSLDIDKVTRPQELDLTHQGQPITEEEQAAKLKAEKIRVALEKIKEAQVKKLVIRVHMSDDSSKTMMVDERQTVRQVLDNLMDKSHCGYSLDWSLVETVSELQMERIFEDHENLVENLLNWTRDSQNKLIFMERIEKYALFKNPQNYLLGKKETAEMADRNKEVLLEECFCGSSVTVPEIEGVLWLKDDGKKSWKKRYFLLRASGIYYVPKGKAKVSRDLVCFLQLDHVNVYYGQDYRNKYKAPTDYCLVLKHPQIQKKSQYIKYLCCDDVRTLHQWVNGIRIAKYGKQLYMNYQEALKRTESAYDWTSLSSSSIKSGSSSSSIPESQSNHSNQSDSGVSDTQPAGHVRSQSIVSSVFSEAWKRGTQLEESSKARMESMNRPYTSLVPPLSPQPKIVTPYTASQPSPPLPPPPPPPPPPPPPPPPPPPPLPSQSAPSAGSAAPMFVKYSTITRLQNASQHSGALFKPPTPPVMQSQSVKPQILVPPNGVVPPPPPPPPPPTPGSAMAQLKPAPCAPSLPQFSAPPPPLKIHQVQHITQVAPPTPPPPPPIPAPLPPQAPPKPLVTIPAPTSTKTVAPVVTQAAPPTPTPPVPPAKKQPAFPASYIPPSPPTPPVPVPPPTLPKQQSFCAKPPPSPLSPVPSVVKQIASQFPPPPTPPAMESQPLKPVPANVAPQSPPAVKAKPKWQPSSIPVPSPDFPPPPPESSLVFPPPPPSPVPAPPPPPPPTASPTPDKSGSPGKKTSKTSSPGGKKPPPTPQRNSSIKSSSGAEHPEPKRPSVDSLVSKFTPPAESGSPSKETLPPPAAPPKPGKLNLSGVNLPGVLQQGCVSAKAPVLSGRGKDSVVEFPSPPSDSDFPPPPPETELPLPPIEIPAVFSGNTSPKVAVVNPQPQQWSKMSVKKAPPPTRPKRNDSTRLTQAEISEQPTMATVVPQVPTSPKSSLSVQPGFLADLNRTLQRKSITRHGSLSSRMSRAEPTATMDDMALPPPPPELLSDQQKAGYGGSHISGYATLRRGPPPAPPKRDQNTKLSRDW

- binding (GFP–MYO10–BioID (human)): binds
- binding [1]: binds
Molecule: lamellipodin (RAPH1), endogenous in U2-OS cells (from UniProt Q70E73 1-1250)

- binding [2]: binds
B1: RASAL2, endogenous in U2-OS cells (protein, UniProt Q9UJF2 1-1139)
chain: MQTPEVPAERSPRRRSISGTSTSEKPNSMDTANTSPFKVPGFFSKRLKGSIKRTKSQSKLDRNTSFRLPSLRSTDDRSRGLPKLKESRSHESLLSPCSTVECLDLGRGEPVSVKPLHSSILGQDFCFEVTYLSGSKCFSCNSASERDKWMENLRRTVQPNKDNCRRAENVLRLWIIEAKDLAPKKKYFCELCLDDTLFARTTSKTKADNIFWGEHFEFFSLPPLHSITVHIYKDVEKKKKKDKNNYVGLVNIPTASVTGRQFVEKWYPVSTPTPNKGKTGGPSIRIKSRFQTITILPMEQYKEFAEFVTSNYTMLCSVLEPVISVRNKEELACALVHILQSTGRAKDFLTDLVMSEVDRCGEHDVLIFRENTIATKSIEEYLKLVGQQYLHDALGEFIKALYESDENCEVDPSKCSSSELIDHQSNLKMCCELAFCKIINSYCVFPRELKEVFASWKQQCLNRGKQDISERLISASLFLRFLCPAIMSPSLFNLMQEYPDDRTSRTLTLIAKVIQNLANFAKFGNKEEYMAFMNDFLEHEWGGMKRFLLEISNPDTISNTPGFDGYIDLGRELSVLHSLLWEVVSQLDKGENSFLQATVAKLGPLPRVLADITKSLTNPTPIQQQLRRFTEHNSSPNVSGSLSSGLQKIFEDPTDSDLHKLKSPSQDNTDSYFRGKTLLLVQQASSQSMTYSEKDERESSLPNGRSVSLMDLQDTHAAQVEHASVMLDVPIRLTGSQLSITQVASIKQLRETQSTPQSAPQVRRPLHPALNQPGGLQPLSFQNPVYHLNNPIPAMPKASIDSSLENLSTASSRSQSNSEDFKLSGPSNSSMEDFTKRSTQSEDFSRRHTVPDRHIPLALPRQNSTGQAQIRKVDQGGLGARAKAPPSLPHSASLRSTGSMSVVSAALVAEPVQNGSRSRQQSSSSRESPVPKVRAIQRQQTQQVQSPVDSATMSPVERTAAWVLNNGQYEEDVEETEQNLDEAKHAEKYEQEITKLKERLRVSSRRLEEYERRLLVQEQQMQKLLLEYKARLEDSEERLRRQQEEKDSQMKSIISRLMAVEEELKKDHAEMQAVIDAKQKIIDAQEKRIVSLDSANTRLMSALTQVKERYSMQVRNGISPTNPTKLSITENGEFKNSSC

- binding [2]: binds
B2: ARHGDIA, endogenous in U2-OS cells (protein, UniProt P52565 1-204)
chain: MAEQEPTAEQLAQIAAENEEDEHSVNYKPPAQKSIQEIQELDKDDESLRKYKEALLGRVAVSADPNVPNVVVTGLTLVCSSAPGPLELDLTGDLESFKKQSFVLKEGVEYRIKISFRVNREIVSGMKYIQHTYRKGVKIDKTDYMVGSYGPRAEEYEFLTPVEEAPKGMLARGSYSIKSRFTDDDKTDHLSWEWNLTIKKDWKD
